{"sequences": {"note": "By UniProt entry, the sequences of proteins in these tests, tags left out.", "UniProt Q0JBA9, entry or part of it": "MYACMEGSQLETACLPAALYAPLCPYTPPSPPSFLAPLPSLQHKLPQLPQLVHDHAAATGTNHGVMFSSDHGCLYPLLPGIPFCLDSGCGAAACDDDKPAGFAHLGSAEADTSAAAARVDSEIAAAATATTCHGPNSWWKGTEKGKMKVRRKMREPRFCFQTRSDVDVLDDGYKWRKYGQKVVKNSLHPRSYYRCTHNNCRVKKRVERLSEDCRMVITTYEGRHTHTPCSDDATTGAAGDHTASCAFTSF"}, "source": "paper PMC7819943", "about": "“Rice protein-binding microarrays: a tool to detect cis-acting elements near promoter regions in rice”", "note": "The list shows a part of the results.", "data": [{"target": "OsWRKY34 (Oryza sativa, UniProt Q0JBA9 1-250)", "experiment": "protein-binding microarray (RPBM); PBS, 2% BSA, 51.3 ng/ul salmon testes DNA, 50 uM zinc acetate, 200 nM TF, 25 C, 1 h; high values mean tight binding", "settings": "protein: recombinant; tags: N-terminal polyhistidine and DsRed monomer fusion (pET32a); label: CyDye5-dUTP incorporated in the synthesized complementary strand; 3' TTTTT single-stranded linker to array surface; dsDNA, one strand shown", "method_in_brief": "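Per-feature fluorescence intensity (arbitrary units), read on an Axon 4000B scanner, is the binding signal. Transcription factors carrying an N-terminal polyhistidine tag and DsRed fusion were expressed in E. coli BL21-CodonPlus and purified on Ni–NTA. A custom Agilent array, made double-stranded by primer extension with Cy5-dUTP and blocked with 2% BSA, was incubated with 200 nM protein in PBS, 2% BSA, salmon testes DNA and 50 µM zinc acetate at 25 °C for 1 h and then washed.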", "values": [{"sequence": "CTCTCTCTCTCCTCTCACGCTTCGCTCGCGGCCGCTCCTCCGGAGTCACCTAGTGCAG", "binding signal": "10300 fluorescence intensity (a.u.)"}, {"sequence": "TGTCCGCCTTCACCCACGTCTCGCCGCACTCGTCCAGCACCGGAGTCACCTAGTGCAG", "binding signal": "9230 fluorescence intensity (a.u.)"}, {"sequence": "AGTTCCCGCGTCTTTTCCTCCCATCCTCTAGCTCATGCCGCGGAGTCACCTAGTGCAG", "binding signal": "11500 fluorescence intensity (a.u.)"}, {"sequence": "CCTCTTGTCCTGCTTCCTTCGCCGCTTCCATGTCTGATGGCGGAGTCACCTAGTGCAG", "binding signal": "8400 fluorescence intensity (a.u.)"}, {"sequence": "AGTTGACCATCCTCTGGCTTGCAGGTCTTGCAGTAGCACTCGGAGTCACCTAGTGCAG", "binding signal": "10200 fluorescence intensity (a.u.)"}, {"sequence": "ATCATGCGCTAATAGCTACTGTGTATCTTTTCTTCTCTTTCGGAGTCACCTAGTGCAG", "binding signal": "8520 fluorescence intensity (a.u.)"}, {"sequence": "TTTGTACCCGTTTTCTACTTTTTTTGTTTCATATTATTAACGGAGTCACCTAGTGCAG", "binding signal": "10900 fluorescence intensity (a.u.)"}, {"sequence": "GATTTTTTTTTTACGGACGGAATTTCTTTTCCCTTTTTTACGGAGTCACCTAGTGCAG", "binding signal": "9380 fluorescence intensity (a.u.)"}, {"sequence": "GCTTCTGGACCTCTCGTGGTGGTGGTGGTGGCCTCTTCTTCGGAGTCACCTAGTGCAG", "binding signal": "11400 fluorescence intensity (a.u.)"}, {"sequence": "GATATTATGATAATTTTTTTCAATACGTTTTTACCGTACCCGGAGTCACCTAGTGCAG", "binding signal": "8540 fluorescence intensity (a.u.)"}, {"sequence": "TGTGGCGTATTGATGTGCTCTCATGGTCTCATTATCATTTCGGAGTCACCTAGTGCAG", "binding signal": "8540 fluorescence intensity (a.u.)"}, {"sequence": "CCCACAGTCGTCCAGTCCGATTTTCGTCCCTTGACTGCAACGGAGTCACCTAGTGCAG", "binding signal": "10000 fluorescence intensity (a.u.)"}, {"sequence": "CCTTAGCCGACACCACCTTCTCGCCACCGTAATTTACCTTCGGAGTCACCTAGTGCAG", "binding signal": "9580 fluorescence intensity (a.u.)"}, {"sequence": "CTACTCCCTCCATTTTATATTATAAGTCATTTGACTTTTTCGGAGTCACCTAGTGCAG", "binding signal": "10900 fluorescence intensity (a.u.)"}, {"sequence": "GTCACCCAGCACGGCAATTTCTGACTATTGTACTATTATTCGGAGTCACCTAGTGCAG", "binding signal": "9820 fluorescence intensity (a.u.)"}, {"sequence": "CCACTCGTACCATCGACACCCTACTTTTTTTAAGGAGAAACGGAGTCACCTAGTGCAG", "binding signal": "8040 fluorescence intensity (a.u.)"}, {"sequence": "ACCTATTTTTTTCATGACTATACTGTCTCTATATTTTTTACGGAGTCACCTAGTGCAG", "binding signal": "9280 fluorescence intensity (a.u.)"}, {"sequence": "TCTTGTGGTGCCTTTTTCCTGCTTTTCAGCTTTCTAGGACCGGAGTCACCTAGTGCAG", "binding signal": "11600 fluorescence intensity (a.u.)"}, {"sequence": "ACCTCCACTTCTCAACCAATCATAACCCATTCCTATTTAACGGAGTCACCTAGTGCAG", "binding signal": "9580 fluorescence intensity (a.u.)"}, {"sequence": "CTGCATCGACATCCTCATCGCCATCATCCTCCCTCCTCTCCGGAGTCACCTAGTGCAG", "binding signal": "9170 fluorescence intensity (a.u.)"}, {"sequence": "GGGATCGTGGCAAATAATTTTTCTTAGTACTAGCACTAGACGGAGTCACCTAGTGCAG", "binding signal": "8190 fluorescence intensity (a.u.)"}, {"sequence": "ATGTCCTTGTGTTCATGTGCTCGTACGATACGAAAATAGACGGAGTCACCTAGTGCAG", "binding signal": "8120 fluorescence intensity (a.u.)"}, {"sequence": "GATGCTCTCGATGTCGATAAGGTTGCTGATTGTATCCTTTCGGAGTCACCTAGTGCAG", "binding signal": "8650 fluorescence intensity (a.u.)"}, {"sequence": "ATAACTTAATGTTTCACTTGTTGGTCAACTGTAACATTTGCGGAGTCACCTAGTGCAG", "binding signal": "10300 fluorescence intensity (a.u.)"}, {"sequence": "GCCATTTTTTTTTGTAACTTTACCAAAATTTGGTAAGGTTCGGAGTCACCTAGTGCAG", "binding signal": "9400 fluorescence intensity (a.u.)"}, {"sequence": "GATTCTTTTGCTCCGATCGTTTCGCTGTAGATTTGGTTTTCGGAGTCACCTAGTGCAG", "binding signal": "10200 fluorescence intensity (a.u.)"}, {"sequence": "ATACTACCTCCGTTTTTTAATAGATGACGTCGTTGACTTTCGGAGTCACCTAGTGCAG", "binding signal": "14600 fluorescence intensity (a.u.)"}, {"sequence": "TTGTGTTCTGTTCTTCCGCCTTATTTTTGCATAATGGTTTCGGAGTCACCTAGTGCAG", "binding signal": "15300 fluorescence intensity (a.u.)"}, {"sequence": "TGTTAAATGATTAATCAACGTTAGCTCATTTTTGACGTGTCGGAGTCACCTAGTGCAG", "binding signal": "8460 fluorescence intensity (a.u.)"}, {"sequence": "TCAACCTTACTTAGTCACATGCTTTATTTTTTTTTTAAAACGGAGTCACCTAGTGCAG", "binding signal": "9800 fluorescence intensity (a.u.)"}, {"sequence": "TATTGTACTTGCTCTTATCTCCTTAAAATATATTTATAGCCGGAGTCACCTAGTGCAG", "binding signal": "8730 fluorescence intensity (a.u.)"}, {"sequence": "TTGGTGAGAACAGCCTTATCTCTATCGCTTTACTCTCTCTCGGAGTCACCTAGTGCAG", "binding signal": "8150 fluorescence intensity (a.u.)"}, {"sequence": "TGTTTAATTTTTATTTATTTTGTTTTTTGAGAGGAATCTTCGGAGTCACCTAGTGCAG", "binding signal": "8640 fluorescence intensity (a.u.)"}, {"sequence": "GCTTATTTTGTAATATCACTTCAGTCTGCTTCATTCCCTTCGGAGTCACCTAGTGCAG", "binding signal": "10700 fluorescence intensity (a.u.)"}, {"sequence": "CATGCTCGTTTCTTGTGGTGCCTAACATTTGTGCTTGTTTCGGAGTCACCTAGTGCAG", "binding signal": "11900 fluorescence intensity (a.u.)"}, {"sequence": "ACCTCGCTTCGGACAAGCCGACCCCGCCTGCTATTTCCCGCGGAGTCACCTAGTGCAG", "binding signal": "8450 fluorescence intensity (a.u.)"}, {"sequence": "ATTTGTTCAATTTTTCCTGTGATGTAATGAAATGGCTTGTCGGAGTCACCTAGTGCAG", "binding signal": "8360 fluorescence intensity (a.u.)"}, {"sequence": "CTCCTTGTCCACGTGGCGGCCTCCGATTCGCTGCCACCTCCGGAGTCACCTAGTGCAG", "binding signal": "9620 fluorescence intensity (a.u.)"}, {"sequence": "ACTCACAGAAAGCGTCGGGGCGGGTCTGGGAGGGCTTGCGCGGAGTCACCTAGTGCAG", "binding signal": "9140 fluorescence intensity (a.u.)"}, {"sequence": "CTCTCTTCTACTACTCTTCCTTACCTAGCTAGTACTCCTACGGAGTCACCTAGTGCAG", "binding signal": "8910 fluorescence intensity (a.u.)"}, {"sequence": "TGCTGGTTCTTTTGGTCAGCTTCAGTTGGCTGCCATGTTGCGGAGTCACCTAGTGCAG", "binding signal": "8340 fluorescence intensity (a.u.)"}, {"sequence": "CGGTTTCGGGTTGTTTGTTTGGATATCCGTGATTATTTCACGGAGTCACCTAGTGCAG", "binding signal": "11500 fluorescence intensity (a.u.)"}]}]}
